# Percent effect of library compounds

Chains of the proteins cited; added tags and fusions are not shown. Residues count along the entry.
UniProt I6X8D2, whole entry: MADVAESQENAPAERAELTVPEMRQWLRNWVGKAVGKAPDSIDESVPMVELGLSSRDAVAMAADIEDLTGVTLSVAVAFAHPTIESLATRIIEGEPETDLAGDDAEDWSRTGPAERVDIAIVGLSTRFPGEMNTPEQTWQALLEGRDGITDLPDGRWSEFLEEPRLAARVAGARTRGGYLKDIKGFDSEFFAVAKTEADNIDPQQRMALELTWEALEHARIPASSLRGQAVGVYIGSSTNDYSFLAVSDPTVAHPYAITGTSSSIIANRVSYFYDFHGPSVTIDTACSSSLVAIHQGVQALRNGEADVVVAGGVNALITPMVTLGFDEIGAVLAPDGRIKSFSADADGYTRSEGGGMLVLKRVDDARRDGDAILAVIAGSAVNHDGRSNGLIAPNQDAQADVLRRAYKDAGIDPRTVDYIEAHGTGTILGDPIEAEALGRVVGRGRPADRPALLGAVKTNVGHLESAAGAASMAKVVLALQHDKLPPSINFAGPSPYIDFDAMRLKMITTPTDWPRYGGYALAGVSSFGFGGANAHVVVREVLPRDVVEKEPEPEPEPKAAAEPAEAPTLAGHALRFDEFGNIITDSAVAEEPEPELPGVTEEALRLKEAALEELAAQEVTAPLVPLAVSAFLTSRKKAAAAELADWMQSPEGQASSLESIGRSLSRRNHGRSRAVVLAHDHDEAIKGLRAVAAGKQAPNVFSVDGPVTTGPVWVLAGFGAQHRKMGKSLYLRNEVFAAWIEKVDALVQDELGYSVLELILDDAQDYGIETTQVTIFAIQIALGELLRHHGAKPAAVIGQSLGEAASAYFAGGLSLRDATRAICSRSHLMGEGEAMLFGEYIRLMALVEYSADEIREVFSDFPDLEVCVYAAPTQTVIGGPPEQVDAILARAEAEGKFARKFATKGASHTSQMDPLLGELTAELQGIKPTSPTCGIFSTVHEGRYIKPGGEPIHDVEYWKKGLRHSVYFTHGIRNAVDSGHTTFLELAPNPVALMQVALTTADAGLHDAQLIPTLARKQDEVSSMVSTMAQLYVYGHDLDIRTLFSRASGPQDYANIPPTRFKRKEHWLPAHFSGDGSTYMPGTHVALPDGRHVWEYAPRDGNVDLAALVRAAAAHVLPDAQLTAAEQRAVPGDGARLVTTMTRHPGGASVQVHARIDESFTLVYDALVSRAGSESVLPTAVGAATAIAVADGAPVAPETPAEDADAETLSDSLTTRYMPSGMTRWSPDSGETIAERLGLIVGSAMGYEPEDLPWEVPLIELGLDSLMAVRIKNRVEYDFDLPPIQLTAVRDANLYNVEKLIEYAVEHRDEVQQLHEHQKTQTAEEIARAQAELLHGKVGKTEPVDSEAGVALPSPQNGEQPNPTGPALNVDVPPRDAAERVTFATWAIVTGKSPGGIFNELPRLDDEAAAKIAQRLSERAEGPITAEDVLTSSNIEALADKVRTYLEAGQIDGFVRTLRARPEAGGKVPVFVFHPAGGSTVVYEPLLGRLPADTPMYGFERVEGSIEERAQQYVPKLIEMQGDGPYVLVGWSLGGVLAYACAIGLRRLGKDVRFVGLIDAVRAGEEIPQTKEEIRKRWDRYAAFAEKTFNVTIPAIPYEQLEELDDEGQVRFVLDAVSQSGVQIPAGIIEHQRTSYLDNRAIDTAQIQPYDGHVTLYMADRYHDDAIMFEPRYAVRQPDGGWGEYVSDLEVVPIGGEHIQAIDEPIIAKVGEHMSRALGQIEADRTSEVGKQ
UniProt Q8IDJ8, 1-583: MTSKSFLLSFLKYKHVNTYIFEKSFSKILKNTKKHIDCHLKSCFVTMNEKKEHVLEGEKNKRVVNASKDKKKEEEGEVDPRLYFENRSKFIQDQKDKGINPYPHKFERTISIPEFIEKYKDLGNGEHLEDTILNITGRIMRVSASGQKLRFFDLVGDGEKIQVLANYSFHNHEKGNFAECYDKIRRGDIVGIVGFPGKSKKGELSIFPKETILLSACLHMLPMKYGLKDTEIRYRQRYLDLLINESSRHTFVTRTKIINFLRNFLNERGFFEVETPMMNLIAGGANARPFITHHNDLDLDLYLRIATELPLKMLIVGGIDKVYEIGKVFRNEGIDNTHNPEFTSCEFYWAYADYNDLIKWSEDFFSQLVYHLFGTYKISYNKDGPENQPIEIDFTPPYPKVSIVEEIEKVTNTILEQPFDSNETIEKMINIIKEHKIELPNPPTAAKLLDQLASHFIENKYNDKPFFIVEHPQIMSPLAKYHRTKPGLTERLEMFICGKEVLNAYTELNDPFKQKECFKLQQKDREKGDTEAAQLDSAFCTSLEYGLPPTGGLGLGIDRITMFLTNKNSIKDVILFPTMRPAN
UniProt A4I591, 1-473: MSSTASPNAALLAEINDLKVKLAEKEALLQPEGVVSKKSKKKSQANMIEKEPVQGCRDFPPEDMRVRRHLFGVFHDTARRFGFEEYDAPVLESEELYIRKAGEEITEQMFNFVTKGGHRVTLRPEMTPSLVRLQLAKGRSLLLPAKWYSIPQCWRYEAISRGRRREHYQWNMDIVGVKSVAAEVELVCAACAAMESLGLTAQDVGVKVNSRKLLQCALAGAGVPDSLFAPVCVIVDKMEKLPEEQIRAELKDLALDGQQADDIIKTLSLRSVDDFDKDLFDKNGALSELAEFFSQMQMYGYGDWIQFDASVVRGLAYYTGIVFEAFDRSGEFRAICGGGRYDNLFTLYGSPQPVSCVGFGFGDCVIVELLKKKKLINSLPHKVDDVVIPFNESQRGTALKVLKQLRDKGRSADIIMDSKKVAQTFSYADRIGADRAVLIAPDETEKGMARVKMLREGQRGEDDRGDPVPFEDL
UniProt Q4DA54, 1-478: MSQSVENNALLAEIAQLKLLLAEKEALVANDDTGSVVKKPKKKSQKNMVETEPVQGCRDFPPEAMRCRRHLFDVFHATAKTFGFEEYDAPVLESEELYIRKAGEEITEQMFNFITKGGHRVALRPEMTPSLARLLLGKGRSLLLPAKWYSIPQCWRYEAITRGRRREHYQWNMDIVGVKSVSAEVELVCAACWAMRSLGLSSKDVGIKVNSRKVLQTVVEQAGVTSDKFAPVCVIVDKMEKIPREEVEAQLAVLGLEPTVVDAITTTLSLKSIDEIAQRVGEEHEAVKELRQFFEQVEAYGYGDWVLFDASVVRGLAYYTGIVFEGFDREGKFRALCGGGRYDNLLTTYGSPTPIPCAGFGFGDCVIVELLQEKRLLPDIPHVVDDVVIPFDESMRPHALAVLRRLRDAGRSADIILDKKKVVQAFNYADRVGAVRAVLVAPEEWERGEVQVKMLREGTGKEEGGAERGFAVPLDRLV

The values are deposited in ChEMBL (CHEMBL3988442, “University of Dundee, Small-Polar-MMV Screening Library” (2021)).

A: 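Enzyme assay of the thioesterase domain of polyketide synthase 13; the read-out is not stated. Target: Polyketide synthase Pks13, Mycobacterium tuberculosis (UniProt I6X8D2). Compounds at 30 µM. The record gives no direction; the compounds picked for IC50 retests had high values, so higher reads as stronger inhibition. Of about 67,000 compounds tested this way, about 300 (0.46%) reached 50% or more in at least one test.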
B: 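Enzyme assay of the cytosolic lysyl-tRNA synthetase in 384-well plates, read by luminescence. Target: Lysine-tRNA ligase, Plasmodium falciparum 3D7 (UniProt Q8IDJ8). Compounds at 30 µM. Direction is inferred from only a few compounds that gave an IC50; most scored high, so higher reads as stronger inhibition. Size under these conditions: about 69,000 compounds, about 49 of them at 50% or above in at least one test.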
C: 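Histidine-tRNA ligase, Leishmania infantum (UniProt A4I591). Enzyme assay of histidyl-tRNA synthetase; the read-out is not stated. Concentration: 30 µM. The record gives no direction; compounds that gave an IC50 in retests scored well above the rest, so higher reads as stronger inhibition. The assay is labelled LdHisRS but filed under L. infantum. Of about 69,000 compounds tested this way, about 410 (0.6%) reached 50% or more in at least one test.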
D: 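Histidine-tRNA ligase, Trypanosoma cruzi CL Brener (UniProt Q4DA54). Enzyme assay of histidyl-tRNA synthetase; the read-out is not stated. Tested at 30 µM. The record gives no direction; compounds that gave an IC50 in retests scored well above the rest, so higher reads as stronger inhibition. Of about 69,000 compounds tested this way, about 31 (0.045%) reached 50% or more in at least one test.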

The filed quantity is “Percent Effect” (%).
The record does not define 0% and 100%; most values in the screen are far below 50% and negative numbers occur (in some assays of this library far below -100).
This is an unselected part of the compounds tested.

{"smiles": "Cc1ccc(C(=O)OC(C)Cn2cccn2)c(=O)[nH]1", "stereo": "centres unmarked", "A": -4.456, "B": 1.544, "C": 7.463, "D": 1.064}
{"smiles": "CS(=O)(=O)N1CCC(C(=O)NC(Cc2ccsc2)c2nccs2)CC1", "stereo": "centres unmarked", "A": -32.62, "B": 2.182, "C": 16.67, "D": 0.5405}
{"smiles": "Cc1ccc(CNC(=O)CN2CCCC(Cn3cncn3)C2)cc1", "stereo": "centres unmarked", "A": -5.399, "B": 1.241, "C": 12.07, "D": 9.605}
{"smiles": "CCN(C)C[C@@H]1CN(Cc2cnc3c(S(C)(=O)=O)cnn3c2)C[C@@H]1CO", "A": -4.28, "B": 5.982, "C": 13.73, "D": 12.35}
{"smiles": "O=C(NCC1(CO)CC1)c1nnn(-c2ccc(F)cc2)c1C1CC1", "A": -21.24, "B": 5.616, "C": -0.8929, "D": 0}
{"smiles": "N#Cc1c(N)nc2c(c1C1CCOC1)CCc1cc(O)ccc1-2", "stereo": "centres unmarked", "A": 23.41, "B": 4.959, "C": 10.84, "D": 5.473}
{"smiles": "O=C(NCc1ccccc1CN1CCOCC1)Nc1nncs1", "A": -0.3431, "B": 1.422, "C": 0.8772, "D": 5.172}
{"smiles": "c1ccc(CCCN2CCCN(c3ncnc4[nH]ccc34)CC2)cc1", "A": -50.58, "B": 5.871, "C": 28.57, "D": 3.636}
{"smiles": "O=C(CN1CCOC1=O)N(Cc1ccccc1)Cc1nccs1", "A": -12.85, "B": 2.724, "C": -1.399, "D": 0.4975}
{"smiles": "O=C(c1cc2cc(F)ccc2[nH]1)N1CCC(Nc2cccnn2)CC1", "A": -12.88, "B": -6.974, "C": 0, "D": 3.422}
{"smiles": "CC(C)NC(=O)N1CCC2(C1)CN(c1ccsc1)C(=O)CN2C", "stereo": "centres unmarked", "A": -8.074, "B": 3.396, "C": 15.69, "D": 2.732}
{"smiles": "CCOc1cc(CN(C)CCOC)ccc1OC(F)F", "A": -8.714, "B": -9.17, "C": -27.36, "D": 2.51}
{"smiles": "CCC(=O)N1CCN(Cc2cc(-c3ccncc3)nn2C)CC1", "A": -32.43, "B": -5.695, "C": 0, "D": 8.108}
{"smiles": "CN(C)c1cc(C2CCCN(S(=O)(=O)c3cn(C)cn3)C2)ccn1", "stereo": "centres unmarked", "A": 2.112, "B": -0.7749, "C": 6.207, "D": 6.084}
{"smiles": "Cc1nnc(NCc2ccccc2Cl)c(C#N)c1C", "A": 4.857, "B": 9.716, "C": 52.31, "D": 23.37}
{"smiles": "Cc1cc(NCc2ccc(O)cc2)n2nc(C)cc2n1", "B": 2.178, "C": 20.78, "D": 1.212}
{"smiles": "Cc1cc(C(=O)CN2CCN(c3nccs3)CC2)c(C)n1C1CC1", "A": -0.3226, "B": 1.716, "C": 25.27, "D": 7.216}
{"smiles": "CSc1sc(NC(=O)C2CCCN(C(N)=O)C2)nc1C", "stereo": "centres unmarked", "A": -3.384, "B": 6.804, "C": 18.75, "D": 15.52}
{"smiles": "CCOc1ccccc1Nc1nc2c(C)nn(C)c2c(=O)n1C", "A": -15.48, "B": 3.064, "C": 16.04, "D": -0.8368}
{"smiles": "Cc1ccc(OCCCNC(=O)CN(C)c2ccc(C#N)cn2)cc1", "A": 14.1, "B": -2.059, "C": 26.83, "D": 12.02}
{"smiles": "CS(=O)(=O)CCCN1CCSCC1c1ccc(Cl)cc1", "stereo": "centres unmarked", "A": -8.753, "B": 7.263, "C": 13.95, "D": 8.333}
{"smiles": "COc1ccc(Br)c(C(=O)NCC2CCN(S(=O)(=O)C3CC3)CC2)c1", "A": 16.83, "B": 0.8925, "C": 19.23, "D": -2.479}
{"smiles": "CC(C)C(=O)N1CCC(c2nc(O)cc(-c3ccncc3)n2)CC1", "A": -33.13, "B": -3.583, "C": 22.22, "D": 0.5405}

2 of the entries, repeated:

SMILES,A,B,C,D
CCN(C)C[C@@H]1CN(Cc2cnc3c(S(C)(=O)=O)cnn3c2)C[C@@H]1CO,-4.28,5.982,13.73,12.35
O=C(NCc1ccccc1CN1CCOCC1)Nc1nncs1,-0.3431,1.422,0.8772,5.172